Source: ChEMBL document CHEMBL3988442, “University of Dundee, Small-Polar-MMV Screening Library” (2021).

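Viability assay of Plasmodium falciparum sporozoites; the read-out is not stated. The concentration is filed as 10 mM, unlikely as a test dose, so the dose is not known. Higher reads as lower viability (inferred: compounds with an IC50 in retests scored well above the rest). Strong results were mostly tested again. Size under these conditions: about 34,000 compounds, about 280 of them at 50% or above in at least one test.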

Values are the deposited “Percent Effect”, in %.
How 0% and 100% were set is not recorded. Most values in the screen are low, and negative values occur.
Compounds were drawn at random from those tested, without regard to their results.
Two or more numbers in one place are separate tests of the same structure; such repeats can differ widely.

SMILES	effect
COc1ccc(CNCCc2cccc(C(N)=O)c2)cc1C	10.21
O=C(O)C(F)(F)F.[H][C@@]12CN(Cc3ccccn3)C[C@]1([H])CN(C(=O)c1cccc(F)c1)C2	5.166
Cn1cc(-c2cnc(N3CCOCC3)nc2)cc1C(=O)O	55.24 & -34.61 & -21.09
Cc1ccc(NC2CCN(C(=O)c3cccnc3N(C)C)CC2)nn1	13.05
O=C(NCCNc1cnccn1)N1CC=C(c2ccc(O)cc2)CC1	-18.85
Fc1cccc(-c2nnn3c2COCC(CNCc2nccs2)C3)c1.O=C(O)C(F)(F)F (stereo not shown)	10.14
Cn1nc2c(cc1=O)CN(Cc1ccc(-n3cccn3)cc1)CC2	-7.815
O=C(O)C(F)(F)F.O=C(c1ccccc1)N1CCC[C@]2(C[C@@H](OCc3ccccn3)CO2)C1	8.162
CN(C)C(=O)Cn1c2c(ccc1=O)CCN(Cc1cnn(C)c1)CC2.O=C(O)C(F)(F)F	10.7
O=C(NCC(O)c1ccc(F)c(F)c1)c1cccnc1OCC(F)(F)F (stereo not shown)	-8.887
CC(C)NC(=O)CC1COC2(CCN(Cc3ccsc3)CC2)C1.O=C(O)C(F)(F)F (stereo not shown)	3.069
O=C(O)C(F)(F)F.O=C(O)C(F)(F)F.O=C(O)C(F)(F)F.[H][C@@]12CC(=O)N(Cc3ccncc3)[C@@]1([H])CCN2Cc1ccccn1	11.65
CC(C)NC(=O)COc1nc(C(C)C)no1	-7.647
Cc1csc(CNC(=O)N(C)Cc2nnc3n2CCC3)n1	5.438
O=C(O)C(F)(F)F.[H][C@]12CCN(Cc3ccc(CC)o3)[C@@]1([H])CCC(=O)N2	8.494
COc1ccc(C(=O)NCC(c2cccn2C)N2CCCC2)c(OC)c1 (stereo not shown)	-39.83 & -4.581 & -34.91
NC(=O)C1CCCN1Cc1cccc(NC(=O)c2ccsc2)c1 (stereo not shown)	2.575
Cc1ccc(CN2CCn3c(CN(C)C(C)C)cnc3C2)s1.O=C(O)C(F)(F)F.O=C(O)C(F)(F)F	5.103
O=C(CCN1CCCCO1)NCc1cn2c(n1)SCC2	-14.48
COCc1cccc(C(=O)N2CCN(C3=NCC(C)(C)S3)CC2)c1	-4.114
Cc1cc(NC(=O)CCc2ccsc2)n(C)n1	-7.839
CN(Cc1cccnc1)CC1CN(C(N)=O)Cc2nccn2C1 (stereo not shown)	-1.515
COCCN1CCCC(CCCc2ccccn2)(C(N)=O)C1 (stereo not shown)	-7.197
Cc1cc(C)c(OCC(=O)NS(=O)(=O)c2c(C)noc2C)c(C)c1	-6.763
CC(C)c1nc(C2CCCN(C(=O)c3nccn4ccnc34)C2)no1 (stereo not shown)	-11.48
Cc1cc(NC(=O)CN2CCc3cnc(C)nc3C2)on1	11.65
Cc1cc(C(=O)N(C)C)nc(C2(C)CCCN2c2ccnc(C)n2)n1 (stereo not shown)	1.838
COC(=O)NCC(=O)NCC(C)(C)c1cccc(C(F)(F)F)c1	11.28
COc1ccc(CC(=O)N2CCCC(n3cc(C)cn3)C2)cc1F (stereo not shown)	-14.46
CNS(=O)(=O)c1ccc(CNC(=O)NCC2CCCO2)cc1 (stereo not shown)	-21.97
Cc1ccc2c(ccn2CCC(=O)O)c1	8.074
COc1ccccc1NC(=O)NCCCn1nc2ccccn2c1=O	0.7727
Cc1nc(CSCCC(=O)NCc2ccc(-n3cncn3)nc2)cs1	13.13
Cc1cccc(N2CCC(N3CCCC4(CN(C)C(=O)O4)C3)CC2)c1C (stereo not shown)	8.705
CN1CCN(S(C)(=O)=O)c2ccc(F)cc21	0.6529
[H][C@]12CC[C@](O)(c3ccccc3F)[C@@]1([H])CN(C(=O)c1cc(C3CC3)n[nH]1)C2	10.2
Cc1ccc(N(CCC#N)C(=O)CN2CCCC2c2ccsc2)cc1C (stereo not shown)	-5.451
Cc1ccccc1CSc1nc(N)cc(N2CCCC(O)C2)n1 (stereo not shown)	-21.66
OC1(CNc2ccc(-c3nc(C4CC4)no3)cn2)CCCCC1	4.085
O=C(O)C(F)(F)F.O=C(O)C(F)(F)F.[H][C@@]12CCN(Cc3cccc(C#N)c3)[C@@]1([H])CC(=O)N2Cc1cccnc1	4.268
Cc1noc2nc(C3CCN(Cc4ccncc4)CC3)cc(C(F)F)c12	10.07
c1cnn(CCNCc2csc(-c3ccsc3)n2)c1	14.33 & -31.19 & -31.38
CCc1ccc(S(=O)(=O)Nc2cc(C(=O)O)c(F)cc2F)s1	19.32
COCCOc1ccc(NC(=O)N2CCCC2c2cccs2)cn1 (stereo not shown)	-8.473
Cc1ccc(C(C)NC(=O)Cc2c(C)nc3c(c2C)c(=O)[nH]n3C)o1 (stereo not shown)	-8.942
O=C1CN(Cc2nnc(-c3ccc(Br)cc3)o2)CCN1	-10.3
CCOCC1CN(Cc2cccc(C#N)c2)Cc2nccn2C1.O=C(O)C(F)(F)F (stereo not shown)	-24.42
O=C1CCCCN1Cc1cccc(NC(=O)N2CCSCC2)c1	-1.12
O=C(c1ccccc1-n1cccn1)N1CCC(Nc2cccnn2)CC1	-3.435
CCn1c(N)nc2cc(C(=O)NCCNc3ncccc3C)cnc21	-11.01 & -17.43
O=C(c1sccc1C1CC1)N1CCN(c2cnccn2)CC1	-16.56
Cc1ccc(C(=O)NCC(C)Cn2ccnc2C)c(=O)[nH]1 (stereo not shown)	-0.9858 & -11.36 & -23.89
CCCn1cc(C(=O)N2CCCC2(C)c2nc(C)cc(N)n2)cn1 (stereo not shown)	-36.72
Cc1cc(N2CCCC2)c(C#N)c(C)n1	3.52
CCCn1nc(C)c(-c2cncn2CCN(C)C2CCCC2)c1C.Cl	1.577
CCN(CC)CCCNc1nccc(-c2cn(C)nc2C)n1	14.44
Cn1cc(CN2CCCN(C(=O)c3sccc3C#N)CC2)cn1	6.014
CN(C)S(=O)(=O)c1ccc(=O)n(CC2CCCCO2)c1 (stereo not shown)	-9.429
CN(C)CCOCc1nnc2n1CCN(CC1CC1)CC2.O=C(O)C(F)(F)F.O=C(O)C(F)(F)F	17.71
COCC(=O)N1CCC2(CCC(C(=O)N3CCCC3)O2)CC1 (stereo not shown)	7.699
CC(O)CN1CCC(CNCc2cccc(OC(F)(F)F)c2)CC1 (stereo not shown)	15.02
O=C(NCCCn1cccn1)C1(c2ccc(Br)cc2)CC1	-6.257 & 11.68 & 10.82
CCn1cc(CN2CCCN(C(=O)c3ccc(C#N)cc3)CC2)cn1	6.408
COCC(=O)N1CCC(c2n[nH]c3nccnc23)CC1	2.176
CN(c1ccncn1)C1CC2(CCN(C(=O)c3ccsc3)C2)C1 (stereo not shown)	-1.649
CN1CCC(N(C)C[C@H]2CC[C@@H](Cc3cccc(O)c3)O2)CC1	18.07
CO[C@@H]1CC[C@@H](NC(=O)c2ccc(OCCN3CCCC3)cc2)[C@H]1O	-4.273
COc1ccc(CNC(C)c2ccc(Cl)cc2)c(OC)c1OC (stereo not shown)	-16.18
CC(C)NC(=O)c1n[nH]c(-n2cnnc2)n1	-0.8772
CCc1ncc(C(=O)N2CCN(Cc3ncccc3C)CC2)cn1	-1.557
Cn1cnc(S(=O)(=O)N2CCCc3cccc(F)c32)c1Cl	-12.01
COc1ccccc1CN(Cc1nc(Cc2ccccc2)no1)C1CC1	-3.044
[H][C@]12CCN(C(=O)N3CCCC3)C[C@@]1([H])OCCN(S(C)(=O)=O)C2	6.305
CCCc1noc(CCC(=O)NC(C)c2nnc3n2CCCCC3)n1 (stereo not shown)	-7.382
Cn1cc(C2=CCN(CCC(=O)NCc3ccc(Cl)cc3)CC2)cn1	-4.758
CCc1nnc2n1CCN(Cc1cccc3c1OCCO3)C2	15.82
O=C(c1ccc(Cl)cc1)N1CCCn2nnc(Cn3cccn3)c2C1	2.999
CCC(NC(=O)CN(C)Cc1ccc(C)o1)c1ccc(C)cc1 (stereo not shown)	1.213
[H][C@@]12CCN(C(=O)Cc3cccs3)[C@@]1([H])CC(=O)N2CC1CC1	0.7881
Cc1ccc(CN2CCc3onc(C(=O)N4CCCC4)c3C2)o1.O=C(O)C(F)(F)F	3.682
CCOc1ccccc1CN1CCc2nc3ccsc3c(=O)n2CC1.Cl	5.685
CCc1nnsc1C(=O)NCCn1nc2ccccn2c1=O	-1.42
Cc1cc(CN2Cc3ccccc3CC2c2nnc(C)o2)no1 (stereo not shown)	7.177
Cc1c[nH]nc1C1CCCN1Cc1nccn1C.O=CO (stereo not shown)	15.22
CC(C)(C)CC(=O)NS(=O)(=O)c1ccc(C#N)cc1C(F)(F)F	18.39
Cn1nc(C2CC2)cc1C(=O)N1CCC(c2nnsc2S(C)(=O)=O)CC1	-8.01

7 of the entries, repeated:

{"smiles": "Cc1cc(N2CCCC2)c(C#N)c(C)n1", "effect": 3.52}
{"smiles": "COc1ccccc1NC(=O)NCCCn1nc2ccccn2c1=O", "effect": 0.7727}
{"smiles": "O=C(c1sccc1C1CC1)N1CCN(c2cnccn2)CC1", "effect": -16.56}
{"smiles": "O=C(NCCCn1cccn1)C1(c2ccc(Br)cc2)CC1", "effect": "-6.257 & 11.68 & 10.82"}
{"smiles": "Cc1cccc(N2CCC(N3CCCC4(CN(C)C(=O)O4)C3)CC2)c1C", "stereo": "stereo not shown", "effect": 8.705}
{"smiles": "CCc1ccc(S(=O)(=O)Nc2cc(C(=O)O)c(F)cc2F)s1", "effect": 19.32}
{"smiles": "CC(C)NC(=O)c1n[nH]c(-n2cnnc2)n1", "effect": -0.8772}